No constants are given. Whether binding was seen depends on the method and setting. In cells and extracts the contact can be indirect. Binding can be weak; no strength is given. For part of these data: Where a sequence is shown, tags or fusion partners need not be part of it.
Columns and labels:
[1] = biological target: T1, dCTCF (endogenous) (Drosophila (endogenous in S2 cells)) (UniProt Q9VS55); assay: co-IP; endogenous: nuclear extract of wildtype S2 cells precipitated with CP190 or dCTCF specific antibodies; Western blot; mouse IgG as control
T1 sequence: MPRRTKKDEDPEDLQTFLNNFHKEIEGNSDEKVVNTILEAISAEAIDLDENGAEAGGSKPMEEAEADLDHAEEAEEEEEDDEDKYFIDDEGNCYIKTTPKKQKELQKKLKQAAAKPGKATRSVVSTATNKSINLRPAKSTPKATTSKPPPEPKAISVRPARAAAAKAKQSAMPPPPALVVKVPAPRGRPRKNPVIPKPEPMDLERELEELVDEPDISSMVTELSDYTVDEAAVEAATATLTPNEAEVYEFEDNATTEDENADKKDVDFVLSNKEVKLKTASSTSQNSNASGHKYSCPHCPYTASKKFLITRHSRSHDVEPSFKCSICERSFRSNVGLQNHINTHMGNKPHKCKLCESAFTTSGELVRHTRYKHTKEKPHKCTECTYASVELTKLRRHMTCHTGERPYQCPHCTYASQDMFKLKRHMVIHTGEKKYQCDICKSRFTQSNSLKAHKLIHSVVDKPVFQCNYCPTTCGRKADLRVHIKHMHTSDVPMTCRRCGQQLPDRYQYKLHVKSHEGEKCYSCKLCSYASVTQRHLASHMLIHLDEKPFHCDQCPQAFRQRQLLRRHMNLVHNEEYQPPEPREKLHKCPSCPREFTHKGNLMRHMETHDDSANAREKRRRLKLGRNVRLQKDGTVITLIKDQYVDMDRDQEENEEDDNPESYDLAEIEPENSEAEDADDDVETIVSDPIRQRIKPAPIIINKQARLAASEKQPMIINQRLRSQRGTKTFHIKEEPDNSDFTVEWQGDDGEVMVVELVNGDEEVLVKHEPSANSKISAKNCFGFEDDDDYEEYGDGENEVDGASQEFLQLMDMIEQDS

Amino acid sequences for entries named in this document (tags omitted). A change or cut given only in a name is not applied to a line headed by its entry.
UniProt Q9W542: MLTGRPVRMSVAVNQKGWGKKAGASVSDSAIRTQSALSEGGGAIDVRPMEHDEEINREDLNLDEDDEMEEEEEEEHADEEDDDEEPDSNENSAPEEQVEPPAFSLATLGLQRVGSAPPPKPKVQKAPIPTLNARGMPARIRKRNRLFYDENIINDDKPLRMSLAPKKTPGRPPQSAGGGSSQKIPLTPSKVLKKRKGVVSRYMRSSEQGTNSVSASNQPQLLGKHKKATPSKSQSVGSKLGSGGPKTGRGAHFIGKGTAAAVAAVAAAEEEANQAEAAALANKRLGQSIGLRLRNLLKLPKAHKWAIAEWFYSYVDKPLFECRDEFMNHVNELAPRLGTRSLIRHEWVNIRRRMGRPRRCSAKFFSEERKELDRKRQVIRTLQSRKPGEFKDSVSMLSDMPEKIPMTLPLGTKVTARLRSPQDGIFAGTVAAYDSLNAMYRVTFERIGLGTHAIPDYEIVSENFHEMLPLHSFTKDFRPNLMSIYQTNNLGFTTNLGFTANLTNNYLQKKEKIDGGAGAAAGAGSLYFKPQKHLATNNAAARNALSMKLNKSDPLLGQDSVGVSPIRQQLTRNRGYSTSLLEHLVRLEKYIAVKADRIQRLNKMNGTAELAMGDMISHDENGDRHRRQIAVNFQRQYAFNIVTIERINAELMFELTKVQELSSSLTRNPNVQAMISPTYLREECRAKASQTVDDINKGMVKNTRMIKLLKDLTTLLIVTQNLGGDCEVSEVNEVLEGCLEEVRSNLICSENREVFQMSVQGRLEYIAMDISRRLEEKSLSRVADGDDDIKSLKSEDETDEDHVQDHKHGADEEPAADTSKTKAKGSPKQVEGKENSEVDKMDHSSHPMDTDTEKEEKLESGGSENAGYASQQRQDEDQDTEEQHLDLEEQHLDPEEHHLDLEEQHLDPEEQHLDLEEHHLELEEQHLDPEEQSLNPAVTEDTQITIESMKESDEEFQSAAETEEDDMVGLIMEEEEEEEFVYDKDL

FLAG-dCTCF (Drosophila) = biological target: T2, FLAG-dCTCF (Drosophila) (UniProt Q9VS55); assay: co-IP; FLAG-M2 antibody precipitation from nuclear extract of S2 cells stably expressing FLAG-CP190 or FLAG-dCTCF; washes 20 mM Tris-HCl pH 7.5, 100 mM NaCl, 0.25% NP-40; Western blot; untransfected S2 cells as negative control
T2 sequence: T1 sequence

[2] = biological target: T3, Centrosomal protein 190 (endogenous) (Drosophila (endogenous in S2 cells)) (UniProt Q24478); assay: co-IP; endogenous: nuclear extract of wildtype S2 cells precipitated with CP190 or dCTCF specific antibodies; Western blot; mouse IgG as control
T3 sequence: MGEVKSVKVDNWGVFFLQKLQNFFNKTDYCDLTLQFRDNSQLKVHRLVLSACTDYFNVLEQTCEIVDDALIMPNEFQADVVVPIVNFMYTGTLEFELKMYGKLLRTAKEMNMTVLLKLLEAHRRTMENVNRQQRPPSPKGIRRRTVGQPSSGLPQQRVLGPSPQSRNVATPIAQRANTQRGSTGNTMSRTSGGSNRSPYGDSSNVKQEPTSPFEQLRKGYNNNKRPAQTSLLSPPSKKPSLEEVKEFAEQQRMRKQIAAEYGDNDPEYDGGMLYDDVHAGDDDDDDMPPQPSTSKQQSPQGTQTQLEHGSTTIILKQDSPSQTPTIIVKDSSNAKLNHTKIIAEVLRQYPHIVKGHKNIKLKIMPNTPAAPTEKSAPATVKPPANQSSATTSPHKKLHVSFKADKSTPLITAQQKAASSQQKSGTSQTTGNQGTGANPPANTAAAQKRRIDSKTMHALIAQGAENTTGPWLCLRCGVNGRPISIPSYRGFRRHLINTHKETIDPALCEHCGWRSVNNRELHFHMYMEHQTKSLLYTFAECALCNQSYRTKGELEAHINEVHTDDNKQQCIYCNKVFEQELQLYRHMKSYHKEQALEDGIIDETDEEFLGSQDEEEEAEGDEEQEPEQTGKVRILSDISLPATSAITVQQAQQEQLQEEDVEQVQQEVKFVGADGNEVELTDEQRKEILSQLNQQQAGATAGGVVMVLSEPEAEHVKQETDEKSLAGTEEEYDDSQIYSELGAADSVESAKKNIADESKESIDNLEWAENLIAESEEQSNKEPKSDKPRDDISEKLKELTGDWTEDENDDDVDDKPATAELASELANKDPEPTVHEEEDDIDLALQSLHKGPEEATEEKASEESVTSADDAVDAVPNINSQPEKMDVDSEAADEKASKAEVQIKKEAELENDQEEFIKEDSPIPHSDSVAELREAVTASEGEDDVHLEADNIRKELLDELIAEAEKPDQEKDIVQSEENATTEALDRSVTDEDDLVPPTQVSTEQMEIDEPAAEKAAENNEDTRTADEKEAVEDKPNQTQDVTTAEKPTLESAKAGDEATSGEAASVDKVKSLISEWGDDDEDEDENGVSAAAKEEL

FLAG-CP190 (Drosophila) = biological target: T4, FLAG-CP190 (Drosophila) (UniProt Q24478); assay: co-IP; FLAG-M2 antibody precipitation from nuclear extract of S2 cells stably expressing FLAG-CP190 or FLAG-dCTCF; washes 20 mM Tris-HCl pH 7.5, 100 mM NaCl, 0.25% NP-40; Western blot; untransfected S2 cells as negative control
T4 sequence: T3 sequence

Measured: binding

Pzg (Drosophila (endogenous in S2 cells))
binds: [1] | FLAG-dCTCF (Drosophila)

Mip130 (from UniProt Q9W542)
binds: all assays above
